## Results of single-concentration screens

Sequences of proteins named here, by UniProt entry; tags and fusion partners are left off. Residues count along the entry.
UniProt I6X8D2, whole entry: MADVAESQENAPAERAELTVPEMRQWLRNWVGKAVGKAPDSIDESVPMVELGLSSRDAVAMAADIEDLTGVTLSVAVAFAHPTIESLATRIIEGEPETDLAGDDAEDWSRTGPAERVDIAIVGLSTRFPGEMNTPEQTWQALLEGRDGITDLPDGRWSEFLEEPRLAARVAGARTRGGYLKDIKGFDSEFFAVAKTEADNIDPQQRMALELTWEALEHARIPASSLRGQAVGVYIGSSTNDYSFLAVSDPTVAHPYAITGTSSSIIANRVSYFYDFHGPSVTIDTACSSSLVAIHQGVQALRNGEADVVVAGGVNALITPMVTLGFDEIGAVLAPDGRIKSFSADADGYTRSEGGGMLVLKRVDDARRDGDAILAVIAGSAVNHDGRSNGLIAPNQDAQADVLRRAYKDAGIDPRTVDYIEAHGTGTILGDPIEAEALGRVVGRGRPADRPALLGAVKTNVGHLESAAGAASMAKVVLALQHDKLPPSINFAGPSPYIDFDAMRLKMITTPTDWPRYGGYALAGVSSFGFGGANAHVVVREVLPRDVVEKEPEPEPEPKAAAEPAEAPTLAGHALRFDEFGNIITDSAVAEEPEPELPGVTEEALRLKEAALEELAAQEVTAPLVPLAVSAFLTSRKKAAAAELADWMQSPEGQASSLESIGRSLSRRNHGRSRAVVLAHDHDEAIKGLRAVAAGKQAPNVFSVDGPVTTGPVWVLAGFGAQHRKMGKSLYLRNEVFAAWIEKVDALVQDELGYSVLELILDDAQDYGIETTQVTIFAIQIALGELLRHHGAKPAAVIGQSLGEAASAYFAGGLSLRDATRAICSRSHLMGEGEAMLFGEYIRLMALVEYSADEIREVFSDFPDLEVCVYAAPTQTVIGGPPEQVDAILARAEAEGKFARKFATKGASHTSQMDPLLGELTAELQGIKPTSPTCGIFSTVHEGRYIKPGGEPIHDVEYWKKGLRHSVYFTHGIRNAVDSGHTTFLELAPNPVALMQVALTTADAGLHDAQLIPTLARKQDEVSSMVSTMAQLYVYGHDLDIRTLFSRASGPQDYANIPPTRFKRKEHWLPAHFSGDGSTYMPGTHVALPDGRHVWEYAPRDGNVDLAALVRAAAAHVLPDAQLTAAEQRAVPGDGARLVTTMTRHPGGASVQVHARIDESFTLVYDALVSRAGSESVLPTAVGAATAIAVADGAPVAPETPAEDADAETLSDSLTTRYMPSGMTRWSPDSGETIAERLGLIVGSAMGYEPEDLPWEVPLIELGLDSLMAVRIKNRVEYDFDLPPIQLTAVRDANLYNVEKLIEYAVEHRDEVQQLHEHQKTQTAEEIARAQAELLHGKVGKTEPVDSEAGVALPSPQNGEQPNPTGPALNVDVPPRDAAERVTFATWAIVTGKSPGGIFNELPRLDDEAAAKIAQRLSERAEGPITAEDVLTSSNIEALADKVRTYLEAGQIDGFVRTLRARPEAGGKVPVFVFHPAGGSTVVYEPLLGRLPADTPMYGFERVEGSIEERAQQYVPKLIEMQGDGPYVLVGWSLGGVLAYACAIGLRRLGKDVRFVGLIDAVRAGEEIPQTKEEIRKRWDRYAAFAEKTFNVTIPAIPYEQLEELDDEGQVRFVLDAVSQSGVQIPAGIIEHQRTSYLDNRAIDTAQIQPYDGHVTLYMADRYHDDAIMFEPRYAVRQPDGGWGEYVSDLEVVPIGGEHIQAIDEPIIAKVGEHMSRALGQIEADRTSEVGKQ
UniProt Q8IDJ8, 1-583: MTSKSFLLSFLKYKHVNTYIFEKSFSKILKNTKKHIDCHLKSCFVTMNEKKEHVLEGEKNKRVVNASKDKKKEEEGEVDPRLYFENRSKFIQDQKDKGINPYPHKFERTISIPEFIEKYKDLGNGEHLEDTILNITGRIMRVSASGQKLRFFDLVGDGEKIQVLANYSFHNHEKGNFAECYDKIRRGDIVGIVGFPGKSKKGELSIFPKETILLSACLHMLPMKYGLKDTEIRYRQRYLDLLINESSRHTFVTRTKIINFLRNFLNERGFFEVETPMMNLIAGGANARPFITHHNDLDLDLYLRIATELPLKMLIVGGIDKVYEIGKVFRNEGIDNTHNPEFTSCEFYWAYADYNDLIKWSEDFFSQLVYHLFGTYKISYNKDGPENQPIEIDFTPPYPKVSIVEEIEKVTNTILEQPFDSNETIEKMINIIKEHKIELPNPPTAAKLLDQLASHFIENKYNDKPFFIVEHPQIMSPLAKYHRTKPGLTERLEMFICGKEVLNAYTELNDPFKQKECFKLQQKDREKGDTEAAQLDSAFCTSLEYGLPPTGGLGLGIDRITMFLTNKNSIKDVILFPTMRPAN
UniProt P9WNZ1, whole entry: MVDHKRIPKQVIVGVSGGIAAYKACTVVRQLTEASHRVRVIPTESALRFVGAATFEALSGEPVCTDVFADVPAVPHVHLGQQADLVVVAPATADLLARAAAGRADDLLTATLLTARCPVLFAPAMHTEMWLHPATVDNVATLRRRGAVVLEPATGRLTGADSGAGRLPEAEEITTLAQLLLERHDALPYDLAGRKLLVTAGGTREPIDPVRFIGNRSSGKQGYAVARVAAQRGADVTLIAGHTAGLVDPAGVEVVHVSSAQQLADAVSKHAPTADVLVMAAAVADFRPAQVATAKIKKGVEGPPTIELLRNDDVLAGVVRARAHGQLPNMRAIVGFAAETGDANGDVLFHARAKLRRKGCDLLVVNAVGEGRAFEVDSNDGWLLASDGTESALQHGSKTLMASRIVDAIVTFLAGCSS

Source: ChEMBL document CHEMBL3988442, “University of Dundee, Small-Polar-MMV Screening Library” (2021).

Toxoplasma: 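Assay of Toxoplasma gondii numbers, read through their beta-galactosidase reporter with a colour substrate. Concentration: 10 µM. The record gives no direction; the compounds picked for IC50 retests had high values, so higher reads as fewer parasites. Of about 67,000 compounds tested this way, about 260 (0.38%) reached 50% or more in at least one test.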
Pks13 thioesterase: 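Polyketide synthase Pks13, Mycobacterium tuberculosis (UniProt I6X8D2). Enzyme assay of the thioesterase domain of polyketide synthase 13; the read-out is not stated. Tested at 30 µM. The record gives no direction; the compounds picked for IC50 retests had high values, so higher reads as stronger inhibition. About 67,000 compounds were tested under these conditions; 0.46% (about 300) showed 50% or more at least once.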
PfKRS1: 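Enzyme assay of the cytosolic lysyl-tRNA synthetase in 384-well plates, read by luminescence. Target: Lysine-tRNA ligase, Plasmodium falciparum 3D7 (UniProt Q8IDJ8). Tested at 30 µM. Higher reads as stronger inhibition, judged from the few compounds that gave an IC50. About 69,000 compounds were tested under these conditions; 0.071% (about 49) showed 50% or more at least once.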
CoaBC: 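Enzyme assay of CoaBC with a phosphate dye (Biomol Green) read at 650 nm. Target: Coenzyme A biosynthesis protein CoaBC, Mycobacterium tuberculosis (UniProt P9WNZ1). Tested at 30 µM. Higher reads as stronger inhibition, judged from the few compounds that gave an IC50. Most strong results did not repeat in a second test. About 67,000 compounds were tested under these conditions; 0.06% (about 40) showed 50% or more at least once.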

The filed quantity is “Percent Effect” (%). The record does not define 0% and 100%; most values in the screen are far below 50% and negative numbers occur (in some assays of this library far below -100). The compounds are a random part of those screened. A dash means the value is not listed here; it may have been measured.

CC(C)c1nc(CN(C)C2CCN(CCS(C)(=O)=O)C2)no1 (centres unmarked) gave Toxoplasma: -22.11%; Pks13 thioesterase: -22.55%; PfKRS1: 0.1125%; CoaBC: 2.727%. Cc1ccc(C(=O)N(C)CCOc2ccccc2F)c(=O)[nH]1 gave Toxoplasma: -36.36%; Pks13 thioesterase: -1.65%; PfKRS1: 3.132%; CoaBC: 12.76%. CN1CCCC1c1cncc(C(=O)NCCN2CCCCC2)n1 (centres unmarked) gave Toxoplasma: -19.51%; Pks13 thioesterase: 7.391%; PfKRS1: -0.08583%; CoaBC: 8.712%. O=C(c1ccncc1)N1CCc2ncnc(C3CCOC3)c2CC1 (centres unmarked) gave Toxoplasma: -11.74%; Pks13 thioesterase: -7.576%; PfKRS1: -1.547%; CoaBC: 2.349%. [H][C@@]12CCN(C3CCOCC3)C[C@@]1([H])O[C@@H](C(=O)N(C)C)C2 gave Toxoplasma: 0.9615%.

CCCn1ncc(C(=O)N(CCOC)Cc2c(C)nn(CC)c2C)c1C read Toxoplasma: -7.334%; Pks13 thioesterase: -7.622%; PfKRS1: 5.569%; CoaBC: -3.64%. Result for CC(C)NC(=O)c1cccc(NC(=O)CCCc2nc(C(C)C)no2)c1 was Toxoplasma: 2.621%; Pks13 thioesterase: -22.88%; PfKRS1: 10.81%; CoaBC: 18.22%. With CCC(CC)c1cc(CNC(=O)N2CCOC(C)C2)on1 (centres unmarked) the screen gave Toxoplasma: 0.6911%; Pks13 thioesterase: -17.6%; PfKRS1: 0.2112%; CoaBC: 5.727%. COCCO[C@H]1CCN(c2cc(OC)ncn2)[C@H]1Cc1ccncc1 read Toxoplasma: 9.69%; Pks13 thioesterase: -23.55%; PfKRS1: 1.135%; CoaBC: 10.24%. For CC1CCCN(Cc2csc(-c3ncccn3)n2)CC1 (centres unmarked) the result was Toxoplasma: 3.662%; Pks13 thioesterase: -26.76%; PfKRS1: 1.171%; CoaBC: -9.444%.

With CCCc1nc(CNC2(c3nccs3)CCCC2)cs1 the screen gave Toxoplasma: 15.08%; Pks13 thioesterase: -6.581%; PfKRS1: 6.189%; CoaBC: -1.459%. Cc1nnc(N2CCCC3(CN(Cc4nccn4C)CCO3)C2)o1 (centres unmarked) read Toxoplasma: -6.065%; Pks13 thioesterase: 4.447%; PfKRS1: 2.066%; CoaBC: 1.11%. CCC[C@H]1CN(c2cncc(C(=O)N(C)C)n2)C[C@@H]1N(C)C gave Toxoplasma: -8.239%; Pks13 thioesterase: 9.871%; PfKRS1: 1.409%; CoaBC: -0.8805%. O=C(NCC1(O)CCCC1)c1ccc2nsnc2c1 read Toxoplasma: 4.367%; Pks13 thioesterase: 1.26%; PfKRS1: 42.69%; CoaBC: -0.8906%. With O=C(c1c[nH]c(=O)c(Cl)c1)N1CCc2ccccc2C1 the screen gave Toxoplasma: 1.746%; Pks13 thioesterase: -15.25%; PfKRS1: 4.46%; CoaBC: 5.488%.

For Cc1csc(NC(=O)C2(C)CCCO2)n1 (centres unmarked) the result was Toxoplasma: 8.673%; Pks13 thioesterase: -27.91%; PfKRS1: 5.502%; CoaBC: 0%. CC(C)OCCC(=O)N1CCN(CC(O)c2ccccc2)CC1 (centres unmarked) gave Toxoplasma: 1.136%; Pks13 thioesterase: 3.668%; PfKRS1: 3.263%; CoaBC: 5.058%. CC(=O)NCC(=O)N1Cc2nccn2CC(CN(C)C(C)C)C1 (centres unmarked) gave Pks13 thioesterase: -1.976%; PfKRS1: 2.206%; CoaBC: 1.269%. Fc1cccnc1N1CCOCC2(CCCN(c3nncs3)C2)C1.O=C(O)C(F)(F)F (centres unmarked) read Toxoplasma: -0.7729%. With Cc1cc(C)cc(-c2cc(C3CCOC3)c(C#N)c(N)n2)c1 (centres unmarked) the screen gave Toxoplasma: -6.522%; Pks13 thioesterase: -80.12%; PfKRS1: 5.282%; CoaBC: 0.7937%.

CN(C)C(=O)C1CCCN1CCCNC(=O)c1cccc2[nH]ncc12 (centres unmarked) read Toxoplasma: -10.37%; Pks13 thioesterase: 3.853%; PfKRS1: 7.967%; CoaBC: 6.456%. For CCS(=O)(=O)N1CCc2c(cnc(-c3cccnc3)c2C(=O)O)C1 the result was Toxoplasma: 0.5351%; Pks13 thioesterase: -26.66%; PfKRS1: 7.195%; CoaBC: 0.8403%. CCSCCn1cc(-c2nccs2)nn1 gave Toxoplasma: -9.654%; Pks13 thioesterase: 5.197%; PfKRS1: 7.413%; CoaBC: 1.082%. With O=C(NCc1ccccn1)[C@H]1COC[C@H]2CN(c3ncccn3)C[C@H]21 the screen gave Pks13 thioesterase: -26.79%; PfKRS1: 1.118%; CoaBC: 4.684%. CCN(CC)CCNC(=O)c1cnc(-c2ccccc2)nc1 read Toxoplasma: 10.03%; Pks13 thioesterase: -27.95%; PfKRS1: 2.747%; CoaBC: 1.717%.

With Cn1cncc1CNC1CC2(CCN(CC3CC3)CC2)c2ccccc21.O=C(O)C(F)(F)F.O=C(O)C(F)(F)F (centres unmarked) the screen gave Toxoplasma: 1.241%. CCN(CC)C(=O)[C@@H]1C[C@H](n2cc(-c3ccccn3)nn2)CN1 gave Toxoplasma: 6.21%; Pks13 thioesterase: 9.995%; PfKRS1: -1.903%; CoaBC: 2.823%. Result for COc1cccc(-c2n[nH]c3c2CN(C(=O)c2cc(C)n(C)n2)CC3)c1 was Toxoplasma: 6.277%; Pks13 thioesterase: -168.1%; PfKRS1: -1.179%; CoaBC: 6.291%. Result for O=C(Cc1cccs1)NCC1(O)CCSC1 (centres unmarked) was Toxoplasma: -9.718%; Pks13 thioesterase: -17.48%; PfKRS1: 5.543%; CoaBC: -3.361%. Result for O=C(O)C(F)(F)F.[H][C@@]12CCCO[C@]1([H])[C@@H](Oc1cccnc1)CN2S(=O)(=O)N(C)C was Toxoplasma: -1.552%.

With Cc1cnc(N2C[C@@H]3CCN(CC(=O)N(C)C)C(=O)[C@H]3C2)nc1 the screen gave Pks13 thioesterase: 0.4132%; PfKRS1: 1.863%; CoaBC: 8.402%. With CC(=O)N1CCC2(CC1)[C@@H]1CN(C(=O)N(C)C)C[C@@H]1C(=O)N2C the screen gave Pks13 thioesterase: -20.17%; PfKRS1: 0.8489%; CoaBC: 0.5089%. Cc1ccc(CN2CCc3ncnc(-c4cccnc4)c3CC2)o1 gave Pks13 thioesterase: -2.037%; PfKRS1: 4.082%; CoaBC: 2.411%.

Once more, the final 2:

structure	Toxoplasma	Pks13 thioesterase	PfKRS1	CoaBC
CC(=O)N1CCC2(CC1)[C@@H]1CN(C(=O)N(C)C)C[C@@H]1C(=O)N2C	-	-20.17	0.8489	0.5089
Cc1ccc(CN2CCc3ncnc(-c4cccnc4)c3CC2)o1	-	-2.037	4.082	2.411